Laboratory results from PubChem BioAssay AID1508600 (Functional Genomics Laboratory (NCATS/FGL), 2020).
The campaign covered roughly 53,000 sequences. About 3,700 (7%) were called active.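 Rule for the calls: active = gene knockdowns whose robust z-score for IL-1 alpha signal is at least 2 or at most -2, so actives lie on both sides; inactive = the rest.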 The list shows a part of the results.

Assay: Components of the Cytosolic LPS Sensing Pathway: Gene Identification via Genome-wide siRNA Screen;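 note: robust z of the log signal after scaling to non-targeting control siRNA wells of the plate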
Details: RAW264.7 macrophages, IL-1a HTRF, actives lie on both sides, screened at 100 nM (by protocol), cells primed 5 h with Pam3CSK4 first
Summary of the method: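 Three distinct siRNAs per gene were tested singly at 100 nM in RAW264.7 macrophages. Following Pam3CSK4 priming and 24 hour LipidA transfection, IL-1a secretion was read by HTRF.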
In the case of GGCUCCUGAUUGAACAAAATT against Plod1, the z-score is reported as inactive: 1.14.
In the case of CCUCUGUGACCUUUCAUGATT against Dhrsx, the z-score is reported as inactive: -1.09.
With GGUGAACCUGGAAGAACUATT against Manea the z-score was inactive: 1.64.
With GGCACAGAAAAAGAAAAUUTT against Usp3 the z-score was inactive: -0.624.
For GGUAUCUCAGUCACGAAGATT against Rora, the z-score was inactive: 0.554.
In the case of GGCCUUAUCGGCAGAUAUUTT against Tmem44, the z-score is reported as inactive: -1.24.
With GGGAUGAACGAAAUCAGUCTT against Myo5a the z-score was inactive: 0.998.
In the case of GCCUAAUCCCUUAAUCUACTT against Oas1g, the z-score is reported as inactive: -1.08.
With GGCAAAUCAAGAGUAUUUUTT against C87436 the z-score was inactive: -0.0212.
For CCAUAAGAGGCUUACCAAATT against Ndrg3, the z-score was inactive: 0.0348.
In the case of GCCCAUUUUUUUAGAUAUCTT against Rbl1, the z-score is reported as inactive: -1.05.
With GGCAUCUUUCAGUUUAUAUTT against Spic the z-score was inactive: 0.0586.
With GGCUGAACUGGGAAAGCAATT against Krtap19-4 the z-score was inactive: -0.998.
For GGUGCUAGUGGAUCAAACGTT against Mpv17l2, the z-score was inactive: -0.766.
For GGAAUCUUUUAUAAACACCTT against Abcc12, the z-score was inactive: -0.0332.
With CCCUAUGAGCAAAUCACAUTT against Ppp3cc the z-score was inactive: -0.499.
In the case of GGUGCUUAGAGUCAAGAAUTT against Tmem88, the z-score is reported as inactive: -0.95.
For GGGACACAUGGAGAUACUGTT against Ankrd2, the z-score was inactive: 0.23.
With GGAAAGAUGAGGAAUGUUCTT against Tbx5 the z-score was inactive: -1.75.
In the case of GCGACAACUGUGAUAUACCTT against Liph, the z-score is reported as inactive: -0.485.
With GGCACCAGGUAAAGCAGUATT against Mitf the z-score was inactive: 0.248.
With GCGAAGACGGAAGCAUAUUTT against Emc8 the z-score was inactive: 0.12.
For CCGACUAAUGCUAAAUCCATT against Pcgf1, the z-score was inactive: 0.897.
With GCUGGGUCAUUUAACAAGCTT against Errfi1 the z-score was inactive: 0.499.
In the case of GCAUUCAAUCUGCAGAGGGTT against Olfr888, the z-score is reported as active: -2.48.
In the case of GGACCAAGGAUCUUGACCUTT against Rax, the z-score is reported as inactive: -0.232.
For GGCUAUCGAUGAGAAAAGUTT against Ecm2, the z-score was inactive: -1.21.
In the case of CCAACUCGUUAUCACUAUATT against Tmigd3, the z-score is reported as inactive: 0.89.
For CCGAUAGAUCUUAUUCUCATT against Vmn1r218, the z-score was inactive: 0.244.
With GGCCAACACCUUUGAUGGATT against Abtb1 the z-score was inactive: 0.552.
In the case of GGAGGUCGUAUUGCGCUAUTT against Sh2b3, the z-score is reported as inactive: -0.206.
In the case of GGAGUUUGUAAGGUCAUGUTT against Galt, the z-score is reported as inactive: -0.431.
For GGGAAUCCUAGACAUGCUGTT against Nphp4, the z-score was inactive: -1.91.
For CCUACAGCAACCAUAAGGATT against Plch2, the z-score was inactive: -1.6.
For UGGAGCUAGCAAUACAGCGTT against Pramel26, the z-score was inactive: -1.35.
For UGCAAAAAACGGAACAAUCTT against Gzmd, the z-score was inactive: 0.198.
In the case of GCGAGAACAGCAAUAGUUCTT against Spag4, the z-score is reported as inactive: 1.32.
For GGCCAUCAUGAUUGGCGAUTT against Lhpp, the z-score was inactive: 0.521.
For GGUAAAACAGGUAUGUCGCTT against Ramac, the z-score was inactive: 0.48.
In the case of “CGGAGCAAAUUAGGCUCUUTT against 4930402H24Rik”, the z-score is reported as inactive: 0.769.
For GGUACCUCUACACAGAUGATT against Fgf21, the z-score was inactive: 0.0136.
With CGCCUAGCCUACUGAGAUUTT against Zswim9 the z-score was inactive: -0.462.
With GGAACUUUAUGUCUCCUACTT against Lrrc56 the z-score was inactive: -0.988.
In the case of CCCUUGGAGGAAGCUAACUTT against Pde2a, the z-score is reported as inactive: -0.29.
For GGGCGUGAAUUCAGAGAUUTT against Pcdhgb5, the z-score was inactive: -0.00376.
With CCUCCAUGCUUGUUGUAGCTT against Olfr1031 the z-score was inactive: -0.65.
In the case of GGAGAUGAUGUGCUUCAGUTT against Fmo9, the z-score is reported as inactive: 0.932.
With CCAGACAGAUGGAUACCAATT against Ttpal the z-score was inactive: 0.417.
For GCCACAAGAUUCAGACCCATT against Elac2, the z-score was inactive: -0.421.
In the case of CCCUAUUUGUGAGAAUGAATT against Gldc, the z-score is reported as inactive: -0.401.
With GCAUUUCGAGCUGAUGGUGTT against Slc36a1 the z-score was inactive: -0.0244.
For GGUCAUCCUUUCUGAGUUGTT against Stard3, the z-score was inactive: -0.173.
With GGAUGGCUUUUUAAUGAAUTT against Chst5 the z-score was inactive: 1.21.
With GGUGUCAUGGACGGAAGCUTT against Cryzl1 the z-score was inactive: -0.211.
In the case of “GGAAAAAUGAGGAAGAUGATT against 6430548M08Rik”, the z-score is reported as inactive: -1.15.
With CCAUUCAUGUGUGUUCAAUTT against Zfp472 the z-score was inactive: 0.496.
In the case of CCUAGCCUAGCUUGGAGAGTT against Fbxl12, the z-score is reported as inactive: -0.477.
In the case of GGCUGCUAUCAUGGAAUUATT against Ppp2cb, the z-score is reported as inactive: 0.924.
For GGAAAGAACGACCAUAUUUTT against Pik3cb, the z-score was inactive: -1.41.
With CGUAGCUAUUCUGGUUGUCTT against H2-Q6 the z-score was inactive: -0.616.
In the case of GGGAGCAGUCUUCCCUCAUTT against Cox8a, the z-score is reported as inactive: -1.44.
In the case of GGAAAAGUGGCUUUCAUUATT against Decr1, the z-score is reported as inactive: 0.0641.
For CGACAUCGAAGACAUGCUCTT against Srebf1, the z-score was inactive: 1.71.
In the case of CGAUCUAUAUGAUGGGUGUTT against Olfr609, the z-score is reported as inactive: 0.142.
In the case of GGUCAUAUCAUUAGGUCUATT against Ptbp3, the z-score is reported as inactive: 0.15.
With GCAAGUGCACAUUAACCGGTT against Ptprr the z-score was inactive: -0.322.
In the case of GCUUCGAGAACUUUCUCCCTT against Nrtn, the z-score is reported as inactive: 0.818.
In the case of GUUCGGUACAACUUUUCUGTT against Alx4, the z-score is reported as inactive: 0.326.
